These are yes or no findings as the source states them, for the method shown. Some results given as binding are weak or reduced against the parent protein; the word gives no strength. Sequences can lack the tags named with a protein.
Assays:
[1] = molecular target: T1, PipX (PII-interacting protein X), His6-tagged (UniProt Q7X386); assay: SPR; indirect assay: 500 nM His6-PipX pre-incubated with Strep-tagged PII, mixture injected on Ni-NTA chip; with ADP (3 mM in Fig. 4, 1 mM in Fig. 5); 25 °C, HBS buffer; both purified
T1 sequence: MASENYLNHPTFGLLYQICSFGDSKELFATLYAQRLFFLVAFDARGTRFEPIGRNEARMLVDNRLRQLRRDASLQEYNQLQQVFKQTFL

Amino acid sequences for entries named in this document (tags omitted). A change or cut given only in a name is not applied to a line headed by its entry.
UniProt P0A3F4: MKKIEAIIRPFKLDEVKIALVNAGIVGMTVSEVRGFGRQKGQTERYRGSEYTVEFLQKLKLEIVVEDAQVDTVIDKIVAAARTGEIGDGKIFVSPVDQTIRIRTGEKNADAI

[2] = molecular target: T2, SeNAGK, N-acetyl-L-glutamate kinase from S. elongatus PCC7942, His6-tagged (S. elongatus PCC7942) (UniProt Q6V1L5); assay: SPR; His6-NAGK immobilised on Ni2+-loaded NTA chip (FC2), PII injected over FC1 and FC2; BIAcore X, 25 °C, HBS buffer (10 mM Hepes pH 7.5, 150 mM NaCl, 1 mM MgCl2, 0.005% Nonidet P40); both purified
T2 sequence: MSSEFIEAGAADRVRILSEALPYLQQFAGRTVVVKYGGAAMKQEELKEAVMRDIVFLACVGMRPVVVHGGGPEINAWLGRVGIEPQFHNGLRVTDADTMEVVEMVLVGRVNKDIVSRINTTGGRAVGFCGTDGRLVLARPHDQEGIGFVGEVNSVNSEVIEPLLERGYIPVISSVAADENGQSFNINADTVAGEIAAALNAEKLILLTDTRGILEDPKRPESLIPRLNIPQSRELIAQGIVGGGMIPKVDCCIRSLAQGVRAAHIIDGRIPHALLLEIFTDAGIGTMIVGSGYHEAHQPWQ

[3] = molecular target: T2, SeNAGK, N-acetyl-L-glutamate kinase from S. elongatus PCC7942, His6-tagged (S. elongatus PCC7942); assay: SEC-MALS; PII mixed with NAGK (molar ratio 3:1 PII trimers to NAGK hexamers) 10 min at room temperature; Superose 6 Increase 10/300 GL; 100 mM Tris-HCl pH 7.8, 300 mM NaCl, 2 mM MgCl2, 2% glycerol; eluted fractions checked by SDS-PAGE; both purified
[4] = molecular target: T1, PipX (PII-interacting protein X), His6-tagged; assay: condition: only in absence of the effector molecules (500 nM PII, 500 nM His6-PipX); SPR; indirect assay: 500 nM His6-PipX pre-incubated with Strep-tagged PII (500 nM in Fig. 4, 100 nM in Fig. 5), mixture injected on Ni-NTA chip; without effector molecules; 25 °C, HBS buffer; both purified
[5] = molecular target: T1, PipX (PII-interacting protein X), His6-tagged; assay: SPR; indirect assay: 500 nM His6-PipX pre-incubated with Strep-tagged PII (500 nM in Fig. 4, 100 nM in Fig. 5), mixture injected on Ni-NTA chip; without effector molecules; 25 °C, HBS buffer; both purified
[6] = molecular target: T1, PipX (PII-interacting protein X), His6-tagged; assay: SPR; indirect assay: 500 nM His6-PipX pre-incubated with Strep-tagged PII, mixture injected on Ni-NTA chip; with 1 mM ATP; 25 °C, HBS buffer; both purified

| Substance | binding [1] | binding [2] | binding [3] | binding [4] | binding [5] | binding [6] |
| --- | --- | --- | --- | --- | --- | --- |
| SePII (K58N) variant, Strep-tagged (from UniProt P0A3F4 1-112) | binds | no binding | no binding | no binding | – | – |
| SePII (K58N/L56K) variant, Strep-tagged (from UniProt P0A3F4 1-112) | binds | no binding | no binding | – | binds | – |
| SePII (WT), PII signal-transduction protein from Synechococcus elongatus PCC 7942, Strep-tagged (from UniProt P0A3F4 1-112) | binds | – | – | – | binds | binds |

— article PMC6908673, “Tuning the in vitro sensing and signaling properties of cyanobacterial PII protein by mutation of key residues” (Scientific Reports, 2019)
